Values from PubChem BioAssay AID720505 (Drosophila RNAi Screening Center, 2013)

Purpose: 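Fly regulators or components of the CRAC channel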 (primary screen)
Cells: Drosophila S2R+ cells
Reagents: long dsRNA against Drosophila genes
Treatment: thapsigargin (2 µM) in calcium-free buffer to empty internal stores, then 2 mM calcium added back
Measured: 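Stores emptied by 2 µM thapsigargin without calcium, then 2 mM calcium re-added; fluo-4 fluorescence followed by FLIPR in 384-well plates, per-well averaged endpoint, raw; two screen passes, some wells retested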
Scale: calcium signal and retest calcium signal: higher = more calcium entry after store depletion
Rule for the call: 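Knock-downs counted as hits when calcium entry dropped relative to STIM1 positive and Rho1 negative controls present on each plate; roughly 1500 genes called, with reductions of differing size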
Meaning of the calls: active = called as lowering calcium entry; inactive = not called
The deposit covers about 20,000 reagents; shown is a random part of those that have a named target and a result. Of all reagents, about 2,100 (10%) are marked active. 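Raw plate signals without normalisation; calls rest on control-based scores that were not deposited; replicate 2 separates called from uncalled poorly.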 The numbers tell different reagents against one gene apart. A plus sign joins genes that one reagent is predicted to hit. Not stated in the record: the amount of reagent, the time to read-out.

no.	Gene	reagent	calcium signal, replicate 1	calcium signal, replicate 2	retest calcium signal, replicate 1	retest calcium signal, replicate 2	Call
1	CG15535 (GeneID 43608)	1	147	92.5			inactive
2	Jon99Fii + Jon99Cii + Jon99Ciii + 1 more	1	136	126			inactive
3	CG11307 (GeneID 40400)	1	105	89	138	91.9	inactive
4	zetaCOP (GeneID 39862)	1	66.9	136			active
5	CG3982 (GeneID 39084)	1	48.3	60.8			inactive
6	CG3982 (GeneID 39084)	2	133	157			inactive
7	bam (GeneID 43038)	1	243	165			inactive
8	CG34007 (GeneID 3885610)	1	79.2	5196			inactive
9	Nup154 (GeneID 34527)	1	114	79.3			inactive
10	CG2157 (GeneID 32018)	1	73.5	97.7			inactive
11	CG15282 (GeneID 34853)	1	118	216			inactive
12	CG15282 (GeneID 34853)	2	92.4	132			inactive
13	Obp19d (GeneID 33040)	1	142	80			inactive
14	insc (GeneID 37355)	1	179	124			inactive
15	Ada2a + Polr2D	1	121	183			inactive
16	Ada2a + Polr2D	2	113	74.3			inactive
17	Inx3 (GeneID 44266)	1	115	152			inactive
18	CG14636 (GeneID 40526)	1	145	183			inactive
19	CG18598 (GeneID 42188)	1	162	152			inactive

The list goes on; the last 5 above are carried over.
no.	Gene	reagent	calcium signal, replicate 1	calcium signal, replicate 2	retest calcium signal, replicate 1	retest calcium signal, replicate 2	Call
15	Ada2a + Polr2D	1	121	183			inactive
16	Ada2a + Polr2D	2	113	74.3			inactive
17	Inx3 (GeneID 44266)	1	115	152			inactive
18	CG14636 (GeneID 40526)	1	145	183			inactive
19	CG18598 (GeneID 42188)	1	162	152			inactive
20	CG5910 (GeneID 40264)	1	96.7	129			inactive
21	CG2444 (GeneID 32121)	1	121	81.3			inactive
22	Gpxl (GeneID 37194)	1	124	141			inactive
23	Ets96B (GeneID 42952)	1	131	140			inactive
24	Naa35 (GeneID 37866)	1	175	85.3			inactive
25	CG7182 (GeneID 38944)	1	76.2	130			inactive
26	Edg91 (GeneID 42117)	1	129	165			inactive
27	CG6296 (GeneID 43246)	1	144	159			inactive
28	vkg (GeneID 33726)	1	161	114			inactive
29	CG14341 (GeneID 33301)	1	134	126			inactive
30	Rbcn-3A (GeneID 31557)	1	68.8	260			active
31	Ndfip (GeneID 326197)	1	95.8	131			inactive
32	CG6927 (GeneID 31419)	1	108	76.5			inactive
33	CG7369 (GeneID 2768961)	1	145	72.4	172	147	inactive
34	Rrp47 (GeneID 32558)	1	110	121			inactive
35	moon (GeneID 32176)	1	135	97.2			inactive
36	CG14853 (GeneID 41771)	1	163	169	6948	128	inactive
37	CG14853 (GeneID 41771)	2	173	79.1			inactive
38	Elp3 (GeneID 33649)	1	95.8	126			inactive
39	CG42540 (GeneID 38562)	1	69.5	151			active
40	CG42540 (GeneID 38562)	2	86.2	81.6			inactive
41	CG42540 (GeneID 38562)	3	89.4	68.2			inactive
42	CG42540 (GeneID 38562)	4	103	121			inactive
43	Plzf (GeneID 34622)	1	109	113			inactive
44	shd (GeneID 39592)	1	71.5	189			inactive
45	CG32568 (GeneID 32659)	1	95.8	122			inactive
46	CG33502 + CG32857 + CG32500	1	84.8	9020			inactive
47	CG33502 + CG32857 + CG32500	2	98.3	116			inactive
48	Lipt1 + CG42837	1	61.5	148			active
49	Nlg1 (GeneID 40913)	1	118	146			inactive
50	Nlg1 (GeneID 40913)	2	132	145			inactive
51	Nlg1 (GeneID 40913)	3	125	150			inactive
52	CG8757 (GeneID 39528)	1	141	107			inactive
53	CG11322 (GeneID 33949)	1	130	89.6			inactive
54	shg (GeneID 37386)	1	146	92			inactive
55	CG4393 (GeneID 42764)	1	238	132			inactive
56	CG4653 (GeneID 32650)	1	99	95.1	118	145	inactive
57	CG4653 (GeneID 32650)	2	82.7	99.3			inactive
